Measured values published in the supplement of paper PMC6411743.
± gives the standard deviation of the averaged measurements. The list shows a part of the results, in another mix than the full data.

Biological target: VKORC1 (UniProt Q9BQB6)
Assay: NP40-soluble protein abundance relative to vehicle (solubility fold change) (ratio); higher = more soluble protein in presence of AMP-PNP
Procedure, shortened: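 In three independent experiments, Jurkat crude lysate made by Dounce homogenisation was treated for 10 min at room temperature and then 3 min at 37 °C with eight concentrations ranging from 0.1 to 10 mM. It was then solubilised with 0.8% NP40 plus benzonase for 60 min at 4 °C and ultracentrifuged. The supernatant was TMT-labelled for LC-MS/MS, and each value is the fold change against the detergent-processed vehicle for the same replicate, using vsn-normalised intensities.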

**Q.** What does the source list for `Nc1ncnc2c1ncn2[C@@H]1O[C@H](COP(=O)(O)OP(=O)(O)NP(=O)(O)O)[C@@H](O)[C@H]1O` [adenylyl imidodiphosphate]?
**A.** NP40-soluble protein abundance (concentration: 1mM): 0.937 ± 0.034; NP40-soluble protein abundance (concentration: 2mM): 0.93 ± 0.02; NP40-soluble protein abundance (concentration: 4mM): 0.948 ± 0.019; NP40-soluble protein abundance (concentration: 6mM): 0.928 ± 0.042; NP40-soluble protein abundance (concentration: 8mM): 0.944 ± 0.024; NP40-soluble protein abundance (concentration: 10mM): 0.947 ± 0.016
